According to patent US8895695B2 (priority 2003, dated 2014):

Assay: general procedure: Fmoc solid-phase peptide synthesis; Fmoc-ProO-chlorotritylresin, Fmoc-DProO-chlorotritylresin, Fmoc-S-(4-S-Alloc-amino)-ProO-chlorotritylresin
Details: whole synthesis, scale of the general procedure 60 mg resin per vessel

Row | Substance | final purity (method not given) [%] | final purity (method not given) (run 1) [%]
1 | Tyr-Arg-Cit-Phe-Arg-Val-Pro-Arg-Arg-2-Nal-Phe-Tyr-Cit-Lys-^DPro^LPro | 100 | 
2 | His-Arg-Cit-Cys-Arg-Gly-^DPro-Arg-Arg-2-Nal-Cys-Tyr-Gln-Lys-^DPro^LPro | 95 | 
3 | Tyr-Arg-Cit-Dab-Arg-Gly-^DPro-Arg-Arg-Trp-Glu-Tyr-Cit-Lys-^DPro^LPro | 92 | 
4 | Tyr-Arg-Trp-Cys-Arg-Gly-^DPro-Arg-Arg-2-Nal-Cys-Tyr-Gln-Lys-^DPro^LPro | 95 | 
5 | Tyr-Arg-Cit-Val-Arg-Val-Pro-Arg-Arg-2-Nal-Phe-Tyr-Cit-Lys-^DPro^LPro | 100 | 
6 | Tyr-Arg-Cit-Phe-Arg-Cit-Pro-Arg-Arg-2-Nal-Val-Tyr-Cit-Lys-^DPro^LPro | 100 | 
7 | Tyr-Arg-Glu-Cys-Arg-Gly-^DPro-Arg-Arg-2-Nal-Cys-Tyr-Gln-Lys-^DPro^LPro | 95 | 
8 | Tyr-Arg-Cit-Val-Arg-Phe-^DPro-Arg-Arg-2-Nal-Val-Tyr-Cit-Lys-^DPro^LPro | 100 | 
9 | Tyr-Arg-Cit-Cys-Arg-Gly-^DPro-Arg-Arg-2-Nal-Cys-Tyr-Asn-Lys-^DPro^LPro | 95 | 
10 | Tyr-Arg-Thr-Cys-Arg-Gly-^DPro-Arg-Arg-Tyr-Cys-Tyr-Cit-Lys-^DPro^LPro | 95 | 
11 | Glu-Arg-Cit-Cys-Arg-Gly-^DPro-Arg-Arg-2-Nal-Cys-Tyr-Gln-Lys-^DPro^LPro | 95 | 
12 | Tyr-Arg-Cit-Cys-Arg-Gly-^DPro-Arg-Arg-2-Nal-Cys-Tyr-Thr-Lys-^DPro^LPro [132] |  | 89
13 | Tyr-Arg-Asn-Cys-Arg-Gly-^DPro-Arg-Arg-2-Nal-Cys-Tyr-Gln-Lys-^DPro^LPro | 95 | 
14 | Tyr-Arg-Cit-Val-Arg-Cit-Pro-Arg-Arg-2-Nal-Val-Tyr-Cit-Lys-^DPro^LPro | 100 | 
15 | Asp-Arg-Cit-Cys-Arg-Gly-^DPro-Arg-Arg-2-Nal-Cys-Tyr-Gln-Lys-^DPro^LPro | 95 | 
16 | Tyr-Arg-Cit-Glu-Arg-Gly-^DPro-Arg-Arg-Trp-Dab-Tyr-Cit-Lys-^DPro^LPro | 72 | 
17 | Tyr-Arg-Cit-Cys-Arg-Gly-^DPro-Arg-Arg-2-Nal-Cys-Tyr-His-Lys-^DPro^LPro | 95 | 
18 | Tyr-Arg-Cit-Phe-Arg-Phe-Pro-Arg-Arg-2-Nal-Phe-Tyr-Cit-Lys-^DPro^LPro | 100 | 
19 | Tyr-Arg-Cit-Phe-Arg-Gly-Gly-Arg-Arg-2-Nal-Phe-Tyr-Cit-Lys-^DPro^LPro | 100 | 
20 | Tyr-Arg-Cit-Val-Arg-Phe-Pro-Arg-Arg-2-Nal-Val-Tyr-Cit-Lys-^DPro^LPro | 100 | 

Row | Substance | final purity (method not given) [%] | final purity (method not given) (run 1) [%]
21 | Tyr-Arg-Cit-Cys-Arg-Gly-^DPro-Arg-Arg-2-Nal-Cys-Tyr-Lys-Lys-^DPro^LPro | 95 | 
22 | Tyr-Arg-Cit-Val-Arg-Phe-^DPro-Arg-Arg-2-Nal-Phe-Tyr-Cit-Lys-^DPro^LPro | 100 | 
23 | Tyr-Arg-4F-Phe-Cys-Arg-Gly-^DPro-Arg-Arg-2-Nal-Cys-Tyr-Gln-Lys-^DPro^LPro | 95 | 
24 | Tyr-Arg-Cit-t-BuG-Arg-Val-Gly-Arg-Arg-2-Nal-t-BuG-Tyr-Cit-Lys-^DPro^LPro | 93 | 
25 | Tyr-Arg-Cit-Val-Arg-Val-Pro-Arg-Arg-2-Nal-Val-Tyr-Cit-Lys-^DPro^LPro | 100 | 
26 | Tyr-Arg-Cit-Cys-Arg-Gly-^DPro-Arg-Arg-Tyr-Cys-Tyr-Gln-Lys-^DGln^LPro | 91 | 
27 | Tyr-Arg-Cit-Cys-Arg-Gly-^DPro-Arg-Arg-2-Nal-Cys-Tyr-Gln-Gln-^DPro^LPro | 95 | 
28 | Tyr-Arg-Cit-Cys-Arg-Gly-^DPro-Arg-Arg-Trp-Cys-Tyr-Gln-Lys-^DPro^LPro | 95 | 
29 | Leu-Arg-Cit-Cys-Arg-Gly-^DPro-Arg-Arg-2-Nal-Cys-Tyr-Gln-Lys-^DPro^LPro | 87 | 
30 | Tyr-Arg-Cit-Cys-Arg-Gly-^DPro-His-Arg-Trp-Cys-Tyr-Cit-Lys-^DPro^LPro | 95 | 
31 | Met-Arg-Cit-Cys-Arg-Gly-^DPro-Arg-Arg-2-Nal-Cys-Tyr-Gln-Lys-^DPro^LPro | 95 | 
32 | Thr-Arg-Cit-Cys-Arg-Gly-^DPro-Arg-Arg-2-Nal-Cys-Tyr-Gln-Lys-^DPro^LPro | 95 | 
33 | Tyr-Arg-Gln-Cys-Arg-Gly-^DPro-Arg-Arg-2-Nal-Cys-Tyr-Cit-Lys-^DPro^LPro | 79 | 
34 | Tyr-Arg-Thr-Cys-Arg-Gly-^DPro-4-PyrAla-Arg-Trp-Cys-Tyr-Gln-Lys-^DPro^LPro | 95 | 
35 | Tyr-Arg-Cit-Cys-Arg-Gly-^DPro-Arg-Arg-2-Nal-Cys-Tyr-Gln-Asn-^DPro^LPro | 95 | 
36 | Tyr-Arg-Cit-Val-Arg-Val-^DPro-Arg-Arg-2-Nal-Phe-Tyr-Cit-Lys-^DPro^LPro | 100 | 
37 | Tyr-Arg-Cit-Cys-Ser-Gly-^DPro-Arg-Arg-2-Nal-Cys-Tyr-Gln-Lys-^DPro^LPro | 95 | 
38 | Tyr-Arg-Cit-t-BuG-Arg-Gly-Gly-Arg-Arg-2-Nal-t-BuG-Tyr-Cit-Lys-^DPro^LPro | 93 | 
39 | Tyr-Arg-Cit-Cys-Arg-Gly-Pro-Arg-(EA)G-2-Nal-Cys-Tyr-Cit-Lys-^DPro^LPro | 90 | 
40 | Tyr-Arg-His-Cys-Arg-Gly-^DPro-Arg-Arg-2-Nal-Cys-Tyr-Gln-Lys-^DPro^LPro | 95 | 

Row | Substance | final purity (method not given) [%] | final purity (method not given) (run 1) [%]
41 | Tyr-Arg-Cit-Cys-Arg-Ala-^DPro-Arg-Arg-Trp-Cys-Tyr-Cit-Lys-^DPro^LPro | 95 | 
42 | Tyr-Arg-Val-Cys-Arg-Gly-^DPro-Arg-Arg-2-Nal-Cys-Tyr-Gln-Lys-^DPro^LPro | 95 | 
43 | Trp-Arg-Cit-Cys-Arg-Gly-^DPro-Arg-Arg-2-Nal-Cys-Tyr-Gln-Lys-^DPro^LPro | 95 | 
44 | Tyr-Arg-Cit-Cys-Arg-Gly-^DPro-Arg-Arg-2-Nal-Cys-Tyr-Gln-Ala-^DPro^LPro | 95 | 
45 | Tyr-Arg-Cit-Cys-Arg-Gly-^DPro-IPegDab-Arg-Trp-Cys-Tyr-Cit-Lys-^DPro^LPro | 95 | 
46 | Tyr-Arg-Leu-Cys-Arg-Gly-^DPro-Arg-Arg-2-Nal-Cys-Tyr-Gln-Lys-^DPro^LPro | 95 | 
47 | Tyr-Arg-Cit-Cys-Arg-Gly-^DPro-Dab-Arg-Trp-Cys-Tyr-Gln-Lys-^DPro^LPro | 95 | 
48 | Tyr-Arg-Cit-Cys-Arg-Gly-^DPro-IsOrn-Arg-2-Nal-Cys-Tyr-Cit-Lys-^DPro^LPro | 95 | 
49 | Tyr-Arg-Ser-Cys-Arg-Gly-^DPro-Arg-Arg-2-Nal-Cys-Tyr-Gln-Lys-^DPro^LPro | 95 | 
50 | Tyr-Arg-Ile-Cys-Arg-Gly-^DPro-Arg-Arg-Tyr-Cys-Tyr-Gln-Lys-^DPro^LPro | 92 | 
51 | Tyr-Arg-Cit-Cys-Arg-Gly-^DPro-Arg-Arg-2-Nal-Cys-Tyr-NMeGly-Lys-^DPro^LPro | 89 | 
52 | Tyr-Arg-Cit-Cys-Arg-Gly-^DPro-Arg-Arg-2-Nal-Cys-Tyr-Cit-Glu-^DPro^LPro | 95 | 
53 | Tyr-4-PyrAla-Thr-Cys-Arg-Gly-^DPro-Arg-Arg-Trp-Cys-Tyr-Gln-Lys-^DPro^LPro | 90 | 
54 | Tyr-Arg-Cit-Phe-Arg-Val-^DPro-Arg-Arg-2-Nal-Phe-Tyr-Cit-Lys-^DPro^LPro | 100 | 
55 | Ile-Arg-Cit-Cys-Arg-Gly-^DPro-Arg-Arg-2-Nal-Cys-Tyr-Gln-Lys-^DPro^LPro | 95 | 
56 | Tyr-Arg-Cit-Phe-Arg-Val-^DPro-Arg-Arg-2-Nal-Val-Tyr-Cit-Lys-^DPro^LPro | 99 | 
57 | Gln-Arg-Cit-Cys-Arg-Gly-^DPro-Arg-Arg-2-Nal-Cys-Tyr-Gln-Lys-^DPro^LPro | 95 | 
58 | Tyr-Arg-Thr-Cys-Arg-Gly-^DPro-Dab-Arg-2-Nal-Cys-Tyr-Gln-Lys-^DPro^LPro | 95 | 
59 | Tyr-Arg-Cit-Cys-Arg-Gly-^DPro-Thr-Arg-2-Nal-Cys-Tyr-Gln-Lys-^DPro^LPro | 95 | 
